PubChem BioAssay AID1259308 | NCATS | 2017
Screen: 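Knock-downs that increase output of a recombinant reporter protein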 (primary screen). Cell system: human HEK293 embryonic kidney cells stably expressing firefly luciferase (HEK-CMV-Luc2-Hygro). Reagents: single siRNA against human genes, 0.8 pmol siRNA per well. Timing: 72 h. Measurement: 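Luciferase light (ONE-Glo) measured on one replicate plate set and viability (CellTiter-Glo) on the other, scaled to a negative control siRNA, with robust z-scores and luciferase per cell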. Reading the numbers: total luciferase, z-score and total luciferase, % of control: higher = more reporter protein produced; luciferase per cell, z-score: higher = more reporter output per viable cell; viable cells, % of control: higher = more viable cells. Rule for the call: 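Active when the median/MAD z-score for overall luciferase is greater than 3; a gene was taken forward for validation with new siRNAs if at least two of its three siRNAs passed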. Meaning of the calls: active = raised luciferase; inactive = no rise.
This is an unselected part of about 59,000 reagents. Over the whole deposit, about 1,510 (2.6%) got an active call. 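Calls use total luciferase alone and ignore viability, so some active siRNAs may act by altering cell number.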

gene knocked down | PubChem SID | total luciferase, z-score | total luciferase, % of control | luciferase per cell, z-score | viable cells, % of control | call
SI (sucrase-isomaltase) | SID160716709 | 0.361 | 89.1 | -0.3 | 108 | inactive
SI (sucrase-isomaltase) | SID160716710 | 1.04 | 102 | 0.186 | 109 | inactive
SI (sucrase-isomaltase) | SID160716711 | -0.0378 | 81.1 | -0.467 | 103 | inactive
MRPL20 (mitochondrial ribosomal protein L20) | SID160742827 | -2.69 | 28.5 | 0.566 | 27.4 | inactive
MRPL20 (mitochondrial ribosomal protein L20) | SID160742828 | -0.0348 | 81.2 | -0.546 | 105 | inactive
MRPL20 (mitochondrial ribosomal protein L20) | SID160742829 | 0.188 | 85.6 | 0.172 | 91.5 | inactive
SMIM8 (small integral membrane protein 8) | SID160745712 | -1.07 | 60.7 | -0.581 | 79 | inactive
SMIM8 (small integral membrane protein 8) | SID160745713 | -1.95 | 43.1 | -1.14 | 65 | inactive
SMIM8 (small integral membrane protein 8) | SID160745714 | 0.59 | 93.6 | 0.319 | 96.2 | inactive
CCDC90B (coiled-coil domain containing 90B) | SID160747101 | 3.78 | 157 | 3.2 | 75.6 | active
CCDC90B (coiled-coil domain containing 90B) | SID160747104 | 0.431 | 90.5 | -0.145 | 105 | inactive
CCDC90B (coiled-coil domain containing 90B) | SID160747105 | -0.212 | 77.7 | 0.195 | 82.4 | inactive
KBTBD13 (kelch repeat and BTB domain containing 13) | SID160725265 | -0.329 | 75.3 | 0.477 | 74.3 | inactive
KBTBD13 (kelch repeat and BTB domain containing 13) | SID160725266 | 0.814 | 98.1 | 0.806 | 88.6 | inactive
KBTBD13 (kelch repeat and BTB domain containing 13) | SID160766535 | -1.38 | 54.4 | -1.39 | 87.7 | inactive
ZNF619 (zinc finger protein 619) | SID160763549 | 1.37 | 109 | 2.18 | 68.7 | inactive
ZNF619 (zinc finger protein 619) | SID160763550 | 0.612 | 94.1 | -0.0815 | 107 | inactive
ZNF619 (zinc finger protein 619) | SID160763552 | -0.571 | 70.5 | 0.401 | 70.9 | inactive
H2BC8 (H2B clustered histone 8) | SID160724141 | -0.431 | 73.3 | -0.185 | 86 | inactive
H2BC8 (H2B clustered histone 8) | SID160724143 | -1.71 | 47.8 | -0.337 | 58.4 | inactive
H2BC8 (H2B clustered histone 8) | SID160735027 | -0.552 | 70.9 | -0.877 | 99.8 | inactive
NTRK3 (neurotrophic receptor tyrosine kinase 3) | SID160778272 | -0.0903 | 80.1 | 0.824 | 72 | inactive
NTRK3 (neurotrophic receptor tyrosine kinase 3) | SID160778273 | 0.633 | 94.5 | 1.11 | 78.8 | inactive
NTRK3 (neurotrophic receptor tyrosine kinase 3) | SID160778274 | -0.609 | 69.8 | -1.28 | 109 | inactive
DPP6 (dipeptidyl peptidase like 6) | SID160734187 | -0.806 | 65.9 | -1.02 | 96.2 | inactive
DPP6 (dipeptidyl peptidase like 6) | SID160756007 | -0.21 | 77.7 | -0.0187 | 87.3 | inactive
DPP6 (dipeptidyl peptidase like 6) | SID160756017 | -0.781 | 66.3 | -0.648 | 87.9 | inactive
DPP6 (dipeptidyl peptidase like 6) | SID160756027 | 0.18 | 85.5 | 0.129 | 92.3 | inactive
DPP6 (dipeptidyl peptidase like 6) | SID160771058 | 4.8 | 177 | 3.01 | 89.6 | active
DPP6 (dipeptidyl peptidase like 6) | SID160771059 | -0.273 | 76.5 | -0.288 | 92.2 | inactive
USP7 (ubiquitin specific peptidase 7) | SID160719443 | 1.27 | 107 | 0.646 | 101 | inactive
USP7 (ubiquitin specific peptidase 7) | SID160719445 | 1.67 | 115 | 1.07 | 97.1 | inactive
USP7 (ubiquitin specific peptidase 7) | SID160719446 | 1.11 | 104 | 1.67 | 74.8 | inactive

Reagents listed above with an active call:
gene knocked down | PubChem SID | total luciferase, z-score | total luciferase, % of control | luciferase per cell, z-score | viable cells, % of control | call
CCDC90B (coiled-coil domain containing 90B) | SID160747101 | 3.78 | 157 | 3.2 | 75.6 | active
DPP6 (dipeptidyl peptidase like 6) | SID160771058 | 4.8 | 177 | 3.01 | 89.6 | active

Next records follow.
gene knocked down | PubChem SID | total luciferase, z-score | total luciferase, % of control | luciferase per cell, z-score | viable cells, % of control | call
LOC652608 (60S ribosomal protein L6-like) | SID160726297 | -0.856 | 64.9 | -0.243 | 77.3 | inactive
LOC652608 (60S ribosomal protein L6-like) | SID160726298 | -0.311 | 75.7 | -0.804 | 105 | inactive
LOC652608 (60S ribosomal protein L6-like) | SID160770786 | 0.996 | 102 | 0.881 | 90.1 | inactive
RAMAC (RNA guanine-7 methyltransferase activating subunit) | SID160751264 | 1.23 | 106 | 1.88 | 72.3 | inactive
RAMAC (RNA guanine-7 methyltransferase activating subunit) | SID160751265 | 2.36 | 129 | 2.37 | 77.2 | inactive
RAMAC (RNA guanine-7 methyltransferase activating subunit) | SID160751266 | -0.117 | 79.6 | 0.143 | 85.6 | inactive
NDUFB5 (NADH:ubiquinone oxidoreductase subunit B5) | SID160777871 | 0.0187 | 82.3 | -0.672 | 110 | inactive
NDUFB5 (NADH:ubiquinone oxidoreductase subunit B5) | SID160777872 | 0.567 | 93.2 | 1.14 | 77.2 | inactive
NDUFB5 (NADH:ubiquinone oxidoreductase subunit B5) | SID160777873 | 0.591 | 93.6 | 0.602 | 89.3 | inactive
RASSF8 (Ras association domain family member 8) | SID160730235 | 2.47 | 131 | 1.56 | 97.1 | inactive
RASSF8 (Ras association domain family member 8) | SID160730236 | -0.524 | 71.5 | -0.594 | 93.4 | inactive
RASSF8 (Ras association domain family member 8) | SID160730237 | -1.09 | 60.2 | -0.707 | 81 | inactive
KLF15 (KLF transcription factor 15) | SID160738963 | 1.31 | 108 | 1.01 | 92.4 | inactive
KLF15 (KLF transcription factor 15) | SID160738964 | 0.997 | 102 | 0.563 | 98 | inactive
KLF15 (KLF transcription factor 15) | SID160738965 | 1.43 | 110 | 1.28 | 88.1 | inactive
GLP1R (glucagon like peptide 1 receptor) | SID160771481 | -0.0707 | 80.5 | -0.282 | 96.9 | inactive
GLP1R (glucagon like peptide 1 receptor) | SID160771490 | -0.422 | 73.5 | -1.19 | 112 | inactive
GLP1R (glucagon like peptide 1 receptor) | SID160771499 | -0.806 | 65.9 | -1.45 | 108 | inactive
DPP10 (dipeptidyl peptidase like 10) | SID160746448 | -0.84 | 65.2 | -1.23 | 101 | inactive
DPP10 (dipeptidyl peptidase like 10) | SID160746449 | 0.59 | 93.6 | 0.641 | 88.4 | inactive
DPP10 (dipeptidyl peptidase like 10) | SID160746450 | 0.307 | 88 | 1.2 | 71.6 | inactive
TAF9B (TATA-box binding protein associated factor 9b) | SID160731384 | -0.102 | 79.9 | -0.367 | 98.3 | inactive
TAF9B (TATA-box binding protein associated factor 9b) | SID160741098 | -0.578 | 70.4 | -1.36 | 113 | inactive
TAF9B (TATA-box binding protein associated factor 9b) | SID160741099 | 0.644 | 94.7 | 0.801 | 85.7 | inactive
